PubChem BioAssay AID686943 – Drosophila RNAi Screening Center – 2013

Test: 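Search across the genome for regulators of signalling from receptor tyrosine kinase to ERK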 (primary screen)
Cells: Drosophila S2R+ haemocyte-like cells expressing YFP-tagged ERK (Rolled)
Reagent: long dsRNA against Drosophila genes
Challenge: insulin stimulation versus unstimulated cells; dose and duration not given
Read-out: 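Per-plate z-scores of phospho-ERK immunostaining normalised to YFP-tagged ERK, measured with and without insulin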
Reading the numbers: replicate 1, z-score of dpERK with insulin and replicate 2, z-score of dpERK with insulin: higher = more active ERK per ERK-YFP after insulin; replicate 1, z-score of dpERK under basal conditions: higher = more basal active ERK per ERK-YFP; replicate 1, z-score of ERK-YFP with insulin: higher = more YFP-tagged ERK signal
The screen tested about 23,000 reagents; shown is a random part of those that have a named target and a result. 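Extra replicates exist only for a retested subset of genes; insulin dose and duration not given; both raised and lowered dpERK matter.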 Reagents against one gene are numbered here. A plus sign joins genes that one reagent is predicted to hit. Not given: the amount of reagent, the time to read-out.

The first 3 entries, ahead of the listing:
gene knocked down,reagent no.,"replicate 1, z-score of dpERK with insulin","replicate 2, z-score of dpERK with insulin","replicate 1, z-score of dpERK under basal conditions","replicate 1, z-score of ERK-YFP with insulin"
CG1789 (GeneID 31812),1,0.01,0.18,-0.17,-0.1
CG6726 (GeneID 42728),1,-0.01,-0.15,-0.02,0.01
Asx (GeneID 36612),1,-0.34,-1.69,-0.95,1.66

Main list, from the start:
gene knocked down,reagent no.,"replicate 1, z-score of dpERK with insulin","replicate 2, z-score of dpERK with insulin","replicate 1, z-score of dpERK under basal conditions","replicate 1, z-score of ERK-YFP with insulin"
CG1789 (GeneID 31812),1,0.01,0.18,-0.17,-0.1
CG6726 (GeneID 42728),1,-0.01,-0.15,-0.02,0.01
Asx (GeneID 36612),1,-0.34,-1.69,-0.95,1.66
Aladin (GeneID 31881),1,0.6,0.65,-0.82,-0.05
p120ctn (GeneID 3355143),1,0.24,0.4,0.24,0.19
CtsF (GeneID 40628),1,-0.24,0.93,1.09,0.18
CtsF (GeneID 40628),2,1.03,0.42,1.69,-1.21
CtsF (GeneID 40628),3,-0.13,-0.04,-0.99,0.08
CG17470 (GeneID 35321),1,0.3,-0.9,0.29,0.6
Gprk2 (GeneID 49045),1,-0.44,-0.8,-1.68,-1.39
ppk14 (GeneID 33887),1,0.99,-0.12,0.42,0.23
RFeSP (GeneID 44390),1,-1.13,-1.89,0.47,1.88
Rpn11 (GeneID 33738),1,-3.24,-2.65,-3.15,-1.89
oxt (GeneID 38288),1,-0.12,0.43,-0.41,0.04
CG18249 (GeneID 40964),1,-0.08,-0.06,0.42,-1.61
CG5608 (GeneID 41543),1,-0.07,0.26,-0.38,1.36
TTLL3B (GeneID 33946),1,2.59,1.75,1.37,0.07
CG10621 (GeneID 35152),1,0.39,0.62,0.5,0.25
CG14507 (GeneID 43461),1,-0.28,1.45,0.36,0.12
pygo (GeneID 43718),1,-0.18,-1.77,-0.02,0.15
Try29F (GeneID 34226),1,-0.77,0.77,1.38,-1
Cftr (GeneID 42928),1,0.26,-0.61,0.38,0.4
CG4511 (GeneID 41305),1,-0.91,-0.36,0.64,0.35
Leash (GeneID 41320),1,1,0.31,0.55,-0.68
CG15036 (GeneID 50396),1,-2,-2.82,-0.37,0.37
AANATL4 (GeneID 37213),1,0.34,1.03,0.13,0.23
BRWD3 (GeneID 42898),1,-0.32,0.5,0.2,0.32
BRWD3 (GeneID 42898),2,-0.52,-2.42,-2.14,-1.02
AOX4 (GeneID 41897),1,-0.15,-1.41,-0.17,0.89
CG34409 (GeneID 5740854),1,0.26,-0.05,-0.4,-1
CG34409 (GeneID 5740854),2,0.77,0.79,-0.46,-0.89
CG4374 (GeneID 42767),1,1.33,-0.22,1.21,-0.05
CG10324 (GeneID 42028),1,0.6,-1.48,0.34,0.06
odd (GeneID 33583),1,-5.46,-3.29,-3.33,-4.63
CG18368 (GeneID 36519),1,-0.11,-0.87,1.17,0.8
CG6310 (GeneID 39237),1,0.53,0.44,0.13,0.2
ninaA (GeneID 33271),1,0.14,0.76,0.02,-0.18
Mlp60A (GeneID 37853),1,-0.58,-0.93,0.48,-0.05
Mlp60A (GeneID 37853),2,-0.16,-0.02,1.2,-1.07
Mlp60A (GeneID 37853),3,0.27,0.51,-0.24,0.13
CG32137 (GeneID 39537),1,-0.98,-0.23,0.27,-0.68
CG32137 (GeneID 39537),2,-4.04,-2.43,-0.97,0.27
Trmt61 (GeneID 43170),1,-0.93,0.05,-0.17,0.37
Taf11 (GeneID 34293),1,0.62,0.82,0.05,-0.32
CG42814 (GeneID 10178958),1,-0.67,-0.24,-0.42,0.5
GlcAT-S (GeneID 34282),1,-0.84,-1.15,0.98,0.26
kl-2 (GeneID 3355181),1,-0.05,-0.5,-0.27,0.92
H (GeneID 42445),1,0.88,0.22,0.85,0.19
CG33462 (GeneID 2768841),1,1.14,-0.08,-0.69,-1.71
CG34334 (GeneID 5740122),1,-1.6,-0.94,-0.39,2.37
D2hgdh (GeneID 31184),1,0.64,-0.12,-0.17,-0.2
ken (GeneID 37785),1,-7.47,-5.75,-0.23,-1.92
CG6661 + asRNA:CR42871,1,0.21,0.45,0.11,0.46
Fcp1 (GeneID 37925),1,-0.05,-0.36,-0.26,0.22
brv2 (GeneID 39932),1,0.2,1.64,-1.43,1.12
Tbh (GeneID 31718),1,0.23,0.65,0.65,0.67
CG6927 (GeneID 31419),1,0.81,-0.21,0.24,-0.07
